Reference: patent publication US20080166352A1
These are yes or no findings as the source states them, for the method shown. Some binding calls cover weakened binding; strength is not graded here. Sequences can lack the tags named with a protein.

Assays:
[1] = target: T1, human B7RP1 extracellular domain fused to chicken avidin (human; chicken) (UniProt O75144); assay: avidin fusion on biotin-coated beads, flow cytometry (FIG. 9A legend)
T1 sequence: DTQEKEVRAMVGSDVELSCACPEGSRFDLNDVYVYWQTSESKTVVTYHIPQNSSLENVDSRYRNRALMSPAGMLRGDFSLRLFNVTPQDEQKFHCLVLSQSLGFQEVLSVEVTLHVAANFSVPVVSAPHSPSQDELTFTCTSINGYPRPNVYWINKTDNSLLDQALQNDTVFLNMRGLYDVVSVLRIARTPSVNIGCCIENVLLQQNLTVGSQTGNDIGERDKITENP

[2] = target: T2, human B7RP-1 Ig1 (IgV-like) domain fused to chicken avidin (human; chicken) (UniProt O75144); assay: avidin fusion on biotin-coated beads, labeled reagent, flow cytometry
T2 sequence: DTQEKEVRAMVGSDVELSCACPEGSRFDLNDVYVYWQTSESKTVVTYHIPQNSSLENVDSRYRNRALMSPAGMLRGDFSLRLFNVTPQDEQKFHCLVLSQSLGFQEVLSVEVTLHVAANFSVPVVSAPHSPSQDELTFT

[3] = target: T1, human B7RP1 extracellular domain fused to chicken avidin (human; chicken); assay: as above

Measured: binding

B1: ICOS-Fc fusion protein (Fc fusion, UniProt Q9Y6W8 21-140, looked up, not shown: a dimerising Fc or GST)
chain: EINGSANYEMFIFHNGGVQILCKYPDIVQQFKMQLLKGGQILCDLTKTKGSGNTVSIKSLKFCHSQLSNNSVSFFLYNLDHSHANYYFCNLSIFDPPPFKVTLTGGYLHIYESQLCCQLK
binds: all assays above
